Laboratory results: PubChem BioAssay AID328 (DTP/NCI, 2004)
The list does not hold the whole screen: it is rich in T/C values a quarter to a half above the control, in often repeated tests (any T/C) and in doses without a T/C. Other doses and runs of a compound stand elsewhere. T/C is the treated group as % of the vehicle group. Some entries give survivors of the animals treated and no T/C: the source holds a T/C of zero for them, seemingly a mark for toxic or unscored doses. Some doses without a T/C left all or most animals alive at the check, yet need not have been tolerated: the source hardly ever lists a survival T/C far under the control, and the zero likely stands for such cases as well. Survivors were counted at the toxicity check, usually on the fifth day, unless a day is given; later deaths do not show. Schedule codes are those of the source, taken here to give the interval after Q, in days (D) or hours (H), and the number of doses after X. For survival time, this PubChem deposit counts one and a half times the control or more as active, and values a quarter to a half above the control carry no call in these data; other NCI protocols may use other cut-offs. Some T/C values are followed by the survivors on the day toxicity was checked, most often the fifth; without a count, all were alive then.

Test system: BDF1 mice, P388 leukemia ip, median survival T/C
Experiment: NCI In Vivo Anticancer Drug Screen. Data for tumor model P388 Leukemia (intraperitoneal) in B6D2F1 (BDF1) mice
Settings: T/C endpoint: median survival time, higher T/C = longer survival
Description: The antitumor activity of compounds was measured in mice bearing transplantable tumors. Survival or tumor size were measured and the results are expressed as the measurement made in the treated group (T) divided by the measurement made in the vehicle treated control group (C). The tumor model used in this assay is P388 Leukemia (intraperitoneal) in B6D2F1 (BDF1) mice

[1] = dose: 6.25 mg/kg/injection, schedule: Q01DX009 (ip), vehicle: saline with Tween-80
[2] = dose: 12.5 mg/kg/injection, schedule: Q01DX009 (ip), vehicle: saline with Tween-80
[3] = dose: 25.0 mg/kg/injection, schedule: Q01DX009 (ip), vehicle: saline with Tween-80
[4] = dose: 200.0 mg/kg/injection, schedule: Q01DX009 (ip), vehicle: saline with Tween-80
[5] = dose: 200.0 mg/kg/injection, schedule: Q01DX009 (ip), vehicle: saline
[6] = dose: 50.0 mg/kg/injection, schedule: Q01DX009 (ip), vehicle: saline with Tween-80
[7] = dose: 100.0 mg/kg/injection, schedule: Q01DX009 (ip), vehicle: saline with Tween-80
[8] = dose: 400.0 mg/kg/injection, schedule: Q04DX003 (ip), vehicle: saline with Tween-80
[9] = dose: 200.0 mg/kg/injection, schedule: Q04DX003 (ip), vehicle: saline with Tween-80
[10] = dose: 400.0 mg/kg/injection, schedule: Q04DX003 (ip), vehicle: Klucel (hydroxypropylcellulose) (HPC)

**Q.** C1=C\CCCCCCCC/1 was tested. Which survivor count [1] did it give?
**A.** 6 of 6

**Q.** What about the survivor count [2] of the same molecule?
**A.** 6 of 6

**Q.** And the survivor count [3]?
**A.** 6 of 6

**Q.** With CS(=O)CC(O)(c1ccc(F)cc1)C1CC1 (stereo unspecified) as the molecule, how does the survivor count [4] read?
**A.** 3 of 6

**Q.** With CCCCCCCCOC(=O)Nc1ccc(OCC)cc1 as the molecule, how does the survivor count [1] read?
**A.** 6 of 6

**Q.** And the survivor count [2]?
**A.** 6 of 6

**Q.** And the survivor count [3]?
**A.** 6 of 6

**Q.** For C=CCC(CC)(C(=O)O)C(=O)O, which survivor count [5] is on record?
**A.** 3 of 6

**Q.** What does the source list for O=C1N(Cl)C(=O)C(c2ccc(C(F)(F)F)cc2)(c2ccc(C(F)(F)F)cc2)N1Cl?
**A.** survivor count [3]: 0 of 6; survivor count [6]: 3 of 6; survivor count [7]: 0 of 6; survivor count [4]: 0 of 6; survivor count [8]: 6 of 6

**Q.** Which results are given for Cn1nc(N)c2ncc(C(Cl)(Cl)Cl)nc21?
**A.** survivor count [6]: 6 of 6; survivor count [7]: 4 of 6; survivor count [9]: 3 of 6

**Q.** Which survivor count [7] does the source give for CCOC(=O)C(CCSC(C)=O)SC(C)=O (stereo unspecified) here?
**A.** 1 of 6

**Q.** And the survivor count (dose: 100.0 mg/kg/injection, schedule: Q04DX003 (ip), vehicle: saline with Tween-80)?
**A.** 4 of 6

**Q.** And the survivor count [9]?
**A.** 0 of 6

**Q.** And the survivor count [8]?
**A.** 0 of 6

**Q.** With N#C/C(=C1C=C(Br)/C(=N\O)C=C\1Cl)c1ccc(Cl)cc1 as the molecule, how does the T/C (dose: 400.0 mg/kg/injection, schedule: Q01DX009 (ip), vehicle: Klucel (hydroxypropylcellulose) (HPC)) read?
**A.** 133 % of control

**Q.** With COc1cc([C@@H]2c3cc4c(cc3[C@@H](OC3OC5COC(C)OC5C(O)C3O)[C@H]3COC(=O)[C@H]23)OCO4)cc(OC)c1O (stereo partly specified) as the molecule, how does the T/C (dose: 50.0 mg/kg/injection, schedule: Q04DX003 (ip), vehicle: Klucel (hydroxypropylcellulose) (HPC)) read?
**A.** 140 % of control [7 of 8 alive]

**Q.** And the survivor count (dose: 60.0 mg/kg/injection, schedule: Q04DX003 (ip), vehicle: saline)?
**A.** 9 of 10

**Q.** What about the survivor count (dose: 83.3 mg/kg/injection, schedule: Q04DX003 (ip), vehicle: Klucel (hydroxypropylcellulose) (HPC)) of the same molecule?
**A.** 5 of 8

**Q.** With COC(=O)CC(N)C(=O)OC (stereo unspecified) as the molecule, how does the survivor count [5] read?
**A.** 5 of 6

**Q.** Which results are given for CCC(C)n1ncc2c(N(C)C)ncnc21 (stereo unspecified)?
**A.** survivor count (dose: 25.0 mg/kg/injection, schedule: Q01DX009 (ip), vehicle: Klucel (hydroxypropylcellulose) (HPC)): 6 of 6; survivor count (dose: 100.0 mg/kg/injection, schedule: Q01DX009 (ip), vehicle: Klucel (hydroxypropylcellulose) (HPC)): 6 of 6; survivor count (dose: 200.0 mg/kg/injection, schedule: Q01DX009 (ip), vehicle: Klucel (hydroxypropylcellulose) (HPC)): 1 of 6; survivor count [10]: 2 of 6

**Q.** With Nc1ncnc2c1ncn2C1CC(CO)C(O)C1O (stereo unspecified) as the molecule, how does the survivor count (dose: 25.0 mg/kg/injection, schedule: Q01DX009 (ip), vehicle: carboxymethylcellulose (CMC)) read?
**A.** 5 of 6

**Q.** What about the survivor count (dose: 50.0 mg/kg/injection, schedule: Q01DX009 (ip), vehicle: carboxymethylcellulose (CMC)) of the same molecule?
**A.** 6 of 6

**Q.** Clc1nc2nc[nH]c2nc1Cl was tested. Which survivor count [7] did it give?
**A.** 5 of 6

**Q.** What does the source list for OC12C3CCCC1CCCC2CCC3 (stereo unspecified)?
**A.** survivor count (dose: 100.0 mg/kg/injection, schedule: Q04DX003 (ip), vehicle: saline sonified): 6 of 6; survivor count [10]: 6 of 6

**Q.** For CC(C)(C)C1COP(=O)(c2ccccc2)N(c2ccccc2)C1 (stereo unspecified), which survivor count (dose: 200.0 mg/kg/injection, schedule: Q01DX005 (ip), vehicle: saline with Tween-80) is on record?
**A.** 0 of 6

**Q.** How did the survivor count [5] turn out when CCc1cc(CC)n2cnnc2n1 was run?
**A.** 0 of 6
